Results reported in the supplement of paper PMC4604168 (melanoma cell lines).
Some of the results follow. Single values are uncertain, as repeats are few or missing.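 Cells were imaged in 1,536-well plates, and nuclei stained with an antibody against cleaved PARP were counted against all DNA-stained nuclei to give the apoptosis fraction. Screening doses were chosen to leave most cells alive, and resting and induced cleaved-PARP levels differ strongly between cell lines.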

Key:
Experiment in all cases: cleaved PARP positive nuclei fraction relative to DMSO control; melanoma cells; higher = more apoptosis
Details in all cases: library dose: low library concentration; 72 h
501Mel = test system: 501Mel
A101D = test system: A101D
A2058 = test system: A2058
A375 = test system: A375
C32 = test system: C32
CBRC008 = test system: CBRC008 (line from a melanoma biopsy)
CBRC014 = test system: CBRC014 (line from a melanoma biopsy)
CBRC016 = test system: CBRC016 (line from a melanoma biopsy)
CBRC017 = test system: CBRC017 (line from a melanoma biopsy)
CBRC034 = test system: CBRC034 (line from a melanoma biopsy)
COLO792 = test system: COLO792
COLO800 = test system: COLO800
COLO829 = test system: COLO829
G361 = test system: G361
IPC-298 = test system: IPC-298
IST-MEL1 = test system: IST-MEL1
LB2518-MEL = test system: LB2518-MEL
LOXIMVI = test system: LOXIMVI
MEL-HO = test system: MEL-HO
CBRC013 = test system: CBRC013 (line from a melanoma biopsy)

SMILES | cleaved PARP positive nuclei fraction (501Mel) [%] | cleaved PARP positive nuclei fraction (A101D) [%] | cleaved PARP positive nuclei fraction (A2058) [%] | cleaved PARP positive nuclei fraction (A375) [%] | cleaved PARP positive nuclei fraction (C32) [%] | cleaved PARP positive nuclei fraction (CBRC008) [%] | cleaved PARP positive nuclei fraction (CBRC014) [%] | cleaved PARP positive nuclei fraction (CBRC016) [%] | cleaved PARP positive nuclei fraction (CBRC017) [%] | cleaved PARP positive nuclei fraction (CBRC034) [%] | cleaved PARP positive nuclei fraction (COLO792) [%] | cleaved PARP positive nuclei fraction (COLO800) [%] | cleaved PARP positive nuclei fraction (COLO829) [%] | cleaved PARP positive nuclei fraction (G361) [%] | cleaved PARP positive nuclei fraction (IPC-298) [%] | cleaved PARP positive nuclei fraction (IST-MEL1) [%] | cleaved PARP positive nuclei fraction (LB2518-MEL) [%] | cleaved PARP positive nuclei fraction (LOXIMVI) [%] | cleaved PARP positive nuclei fraction (MEL-HO) [%] | cleaved PARP positive nuclei fraction (CBRC013) [%]
N#CC[C@H](C1CCCC1)n1cc(-c2ncnc3[nH]ccc23)cn1 [ruxolitinib] + CC(=O)O[C@@]12CO[C@@H]1C[C@H](O)[C@@]1(C)C(=O)[C@H](O)C3=C(C)[C@@H](OC(=O)[C@H](O)[C@@H](NC(=O)OC(C)(C)C)c4ccccc4)C[C@@](O)([C@@H](OC(=O)c4ccccc4)[C@H]21)C3(C)C [Docetaxel] (first compound 1 µM, partner dose 0.0001 µM) | 288 | 57.9 | 1580 | 2150 | 72.8 | 738 | 122 | 371 | 222 | 67.7 | 465 | 328 | 179 | 596 | 255 | 94.1 | 433 | 244 | 94.5 | 
O=C(Nc1cc(C(F)(F)F)cc(C(F)(F)F)c1)c1cc(Cl)ccc1O + CN(C)S(=O)(=O)c1ccc2c(c1)/C(=C/c1cc3c([nH]1)CCCC3)C(=O)N2 [SU6656] (first compound 0.016 µM, partner dose 0.4 µM) | 194 | 97.6 | 176 | 96.4 | 66.4 | 58.7 | 783 | 239 | 106 |  | 324 | 100 | 106 | 104 | 367 | 638 | 54.4 | 1310 | 504 | 165
N#CC[C@H](C1CCCC1)n1cc(-c2ncnc3[nH]ccc23)cn1 [ruxolitinib] + Cn1nnc2c(C(N)=O)ncn2c1=O [temozolomide] (first compound 1 µM, partner dose 2 µM) | 69.4 | 228 | 120 | 70.6 | 72.6 | 54.2 | 103 | 118 | 176 | 59.6 | 126 | 44.6 | 58.4 | 140 | 81.8 | 66.6 | 55.8 | 279 | 165 | 
O=c1[nH]nc(Sc2ncc([N+](=O)[O-])s2)n1-c1ccc2c(c1)OCCO2 + Nc1ncn([C@H]2C[C@H](O)[C@@H](CO)O2)c(=O)n1 [decitabine] (first compound 0.2 µM, partner dose 0.1 µM) | 93.2 | 99.5 | 188 | 115 | 74 | 103 | 104 | 325 | 114 | 63.6 | 123 | 84.8 | 127 | 92.9 | 257 | 101 | 130 | 152 | 179 | 
COc1cc([C@@H]2c3cc4c(cc3[C@@H](O[C@@H]3O[C@@H]5CO[C@@H](C)O[C@H]5[C@H](O)[C@H]3O)[C@H]3COC(=O)[C@H]23)OCO4)cc(OC)c1O [etoposide] + NCC(=O)Nc1ccc(-n2nc(C(F)(F)F)cc2-c2ccc3c(ccc4ccccc43)c2)cc1 [OSU03012] (first compound 0.02 µM, partner dose 1 µM) | 355 | 86.6 | 116 | 6420 | 144 | 37.3 | 81.8 | 147 | 194 |  | 110 | 200 |  | 101 | 58.6 | 108 | 101 | 44.9 | 148 | 80.5
CC[C@]1(O)C[C@H]2CN(CCc3c([nH]c4ccccc34)[C@@](C(=O)OC)(c3cc4c(cc3OC)N(C=O)[C@H]3[C@@](O)(C(=O)OC)[C@H](OC(C)=O)[C@]5(CC)C=CCN6CC[C@]43[C@@H]65)C2)C1 [vincristine] + O=c1[nH]nc(Sc2ncc([N+](=O)[O-])s2)n1-c1ccc2c(c1)OCCO2 [BI78D3] (first compound 0.0001 µM, partner dose 0.2 µM) | 77 | 60.9 | 984 | 202 | 204 | 194 | 109 | 74.6 | 176 | 47.1 | 94.2 | 159 | 195 | 66.4 | 46.7 | 78.3 | 51.3 | 233 | 68 | 
CC[C@]1(O)C[C@H]2CN(CCc3c([nH]c4ccccc34)[C@@](C(=O)OC)(c3cc4c(cc3OC)N(C=O)[C@H]3[C@@](O)(C(=O)OC)[C@H](OC(C)=O)[C@]5(CC)C=CCN6CC[C@]43[C@@H]65)C2)C1 [vincristine] + C[C@@H]1CCN(C(=O)CC#N)C[C@@H]1N(C)c1ncnc2[nH]ccc12 [CP690550] (first compound 0.0001 µM, partner dose 1 µM) | 204 | 154 | 571 | 56.6 | 26.1 | 80.1 | 65.8 | 94.8 | 71.2 |  | 81.4 | 86.3 | 116 | 189 | 80.5 | 68.5 | 62.4 | 304 | 40.4 | 111
CC[C@]1(O)C[C@H]2CN(CCc3c([nH]c4ccccc34)[C@@](C(=O)OC)(c3cc4c(cc3OC)N(C=O)[C@H]3[C@@](O)(C(=O)OC)[C@H](OC(C)=O)[C@]5(CC)C=CCN6CC[C@]43[C@@H]65)C2)C1 [vincristine] + OCc1c[nH]c2ccccc12 [Indole-3-carbinol] (first compound 0.0001 µM, partner dose 0.8 µM) | 109 | 104 | 1080 | 620 | 96.5 | 204 | 97.6 | 71.9 | 299 | 59.6 | 26.9 | 158 | 73.2 | 159 | 90.7 | 73 | 266 | 156 | 79.7 | 
CC[C@]1(O)C[C@H]2CN(CCc3c([nH]c4ccccc34)[C@@](C(=O)OC)(c3cc4c(cc3OC)N(C=O)[C@H]3[C@@](O)(C(=O)OC)[C@H](OC(C)=O)[C@]5(CC)C=CCN6CC[C@]43[C@@H]65)C2)C1 [vincristine] + C=CCn1c(=O)c2cnc(Nc3ccc(N4CCN(C)CC4)cc3)nc2n1-c1cccc(C(C)(C)O)n1 [MK1775] (first compound 0.0001 µM, partner dose 0.02 µM) | 96.5 | 305 | 292 | 247 | 201 | 233 | 127 | 145 | 129 |  | 82.9 | 75.2 | 133 | 66.6 | 101 | 51.9 | 78.9 | 89.6 | 145 | 190
COc1cc([C@@H]2c3cc4c(cc3[C@@H](O[C@@H]3O[C@@H]5CO[C@@H](C)O[C@H]5[C@H](O)[C@H]3O)[C@H]3COC(=O)[C@H]23)OCO4)cc(OC)c1O [etoposide] + COc1cc(Nc2ncc(F)c(Nc3ccc4c(n3)NC(=O)C(C)(C)O4)n2)cc(OC)c1OC [Tamatinib] (first compound 0.02 µM, partner dose 0.4 µM) | 46.3 | 106 | 130 | 72 | 82.7 | 307 | 81.2 | 60 | 124 |  | 105 | 240 |  | 115 | 115 | 151 | 103 | 81.7 | 159 | 104
O=c1[nH]nc(Sc2ncc([N+](=O)[O-])s2)n1-c1ccc2c(c1)OCCO2 + Cc1ccc(Nc2nccc(N(C)c3ccc4c(C)n(C)nc4c3)n2)cc1S(N)(=O)=O [Pazopanib] (first compound 0.2 µM, partner dose 0.4 µM) | 56.4 | 49.9 | 68.4 | 47 | 81.1 | 35.3 | 111 | 125 | 152 | 136 | 93.2 | 163 | 105 | 83.7 | 45.5 | 67.1 | 104 | 273 | 115 | 
O=C(Nc1cc(C(F)(F)F)cc(C(F)(F)F)c1)c1cc(Cl)ccc1O + CN(c1ncccc1CNc1nc(Nc2ccc3c(c2)CC(=O)N3)ncc1C(F)(F)F)S(C)(=O)=O [PF562271] (first compound 0.016 µM, partner dose 0.08 µM) | 34.6 | 55.1 | 82.4 | 88 | 75.4 | 186 | 113 | 78.7 | 127 | 164 | 89.5 | 72.1 | 100 | 65.5 | 41.4 | 396 | 92.5 | 159 | 43.9 | 
Cc1cn(-c2cc(NC(=O)c3ccc(C)c(Nc4nccc(-c5cccnc5)n4)c3)cc(C(F)(F)F)c2)cn1 [nilotinib] + Cn1sc(=O)n(Cc2ccccc2)c1=O [TDZD-8] (first compound 0.2 µM, partner dose 0.4 µM) | 45.5 | 60.2 | 98.7 | 203 | 131 | 23.5 | 84.4 | 84.1 | 94.8 | 69.7 | 79.2 | 242 | 86.8 | 129 | 83.6 | 62.6 | 194 | 113 | 60.4 | 
O=C(Nc1cc(C(F)(F)F)cc(C(F)(F)F)c1)c1cc(Cl)ccc1O + Cn1sc(=O)n(Cc2ccccc2)c1=O [TDZD-8] (first compound 0.016 µM, partner dose 0.4 µM) | 90.6 | 91 | 254 | 139 | 286 | 61.7 | 122 | 47.7 | 109 | 66.1 | 116 | 120 | 52.6 | 88.1 | 89.6 | 32.7 | 105 | 66.7 | 71 | 
O=C(Nc1cc(C(F)(F)F)cc(C(F)(F)F)c1)c1cc(Cl)ccc1O + CCCCCCCCCCCCCCCCCCOP(=O)([O-])OC1CC[N+](C)(C)CC1 [Perifosine] (first compound 0.016 µM, partner dose 0.4 µM) | 72.2 | 88.7 | 94.6 | 114 | 155 | 117 | 186 | 91.3 | 106 | 74.7 | 68.7 | 69.7 | 139 | 79.1 | 29.1 | 133 | 34.4 | 104 | 327 | 
Cc1cn(-c2cc(NC(=O)c3ccc(C)c(Nc4nccc(-c5cccnc5)n4)c3)cc(C(F)(F)F)c2)cn1 [nilotinib] + CS(=O)(=O)c1ccc(C(=O)Nc2ccc(Cl)c(-c3ccccn3)c2)c(Cl)c1 [vismodegib] (first compound 0.2 µM, partner dose 1 µM) | 102 | 139 | 151 | 98.1 | 237 | 71.3 | 159 | 175 | 81.5 | 23.1 | 171 | 209 | 65 | 40.9 | 88.8 | 40.4 | 148 | 294 | 35.2 | 

For convenience, some entries already given.
SMILES | cleaved PARP positive nuclei fraction (501Mel) [%] | cleaved PARP positive nuclei fraction (A101D) [%] | cleaved PARP positive nuclei fraction (A2058) [%] | cleaved PARP positive nuclei fraction (A375) [%] | cleaved PARP positive nuclei fraction (C32) [%] | cleaved PARP positive nuclei fraction (CBRC008) [%] | cleaved PARP positive nuclei fraction (CBRC014) [%] | cleaved PARP positive nuclei fraction (CBRC016) [%] | cleaved PARP positive nuclei fraction (CBRC017) [%] | cleaved PARP positive nuclei fraction (CBRC034) [%] | cleaved PARP positive nuclei fraction (COLO792) [%] | cleaved PARP positive nuclei fraction (COLO800) [%] | cleaved PARP positive nuclei fraction (COLO829) [%] | cleaved PARP positive nuclei fraction (G361) [%] | cleaved PARP positive nuclei fraction (IPC-298) [%] | cleaved PARP positive nuclei fraction (IST-MEL1) [%] | cleaved PARP positive nuclei fraction (LB2518-MEL) [%] | cleaved PARP positive nuclei fraction (LOXIMVI) [%] | cleaved PARP positive nuclei fraction (MEL-HO) [%] | cleaved PARP positive nuclei fraction (CBRC013) [%]
O=c1[nH]nc(Sc2ncc([N+](=O)[O-])s2)n1-c1ccc2c(c1)OCCO2 + Cc1ccc(Nc2nccc(N(C)c3ccc4c(C)n(C)nc4c3)n2)cc1S(N)(=O)=O [Pazopanib] (first compound 0.2 µM, partner dose 0.4 µM) | 56.4 | 49.9 | 68.4 | 47 | 81.1 | 35.3 | 111 | 125 | 152 | 136 | 93.2 | 163 | 105 | 83.7 | 45.5 | 67.1 | 104 | 273 | 115 | 
O=C(Nc1cc(C(F)(F)F)cc(C(F)(F)F)c1)c1cc(Cl)ccc1O + CN(c1ncccc1CNc1nc(Nc2ccc3c(c2)CC(=O)N3)ncc1C(F)(F)F)S(C)(=O)=O [PF562271] (first compound 0.016 µM, partner dose 0.08 µM) | 34.6 | 55.1 | 82.4 | 88 | 75.4 | 186 | 113 | 78.7 | 127 | 164 | 89.5 | 72.1 | 100 | 65.5 | 41.4 | 396 | 92.5 | 159 | 43.9 | 
Cc1cn(-c2cc(NC(=O)c3ccc(C)c(Nc4nccc(-c5cccnc5)n4)c3)cc(C(F)(F)F)c2)cn1 [nilotinib] + Cn1sc(=O)n(Cc2ccccc2)c1=O [TDZD-8] (first compound 0.2 µM, partner dose 0.4 µM) | 45.5 | 60.2 | 98.7 | 203 | 131 | 23.5 | 84.4 | 84.1 | 94.8 | 69.7 | 79.2 | 242 | 86.8 | 129 | 83.6 | 62.6 | 194 | 113 | 60.4 | 
